Where “and” joins values, the source holds several entries; their conditions need not be identical. Equal entries are not always repeated. Where two headings read alike, the source gives them in different places.
How the values were obtained:
[1] = tested on: mice; assay: MES screen after intraperitoneal injection in mice; type: in vivo; settings: for MES screen slope: slope belonging to the MES ED50
[2] = tested on: mice; settings: intraperitoneal injection in mice; for PI acPTZ (protection index TD50/ED50): TD50 / scPTZ ED50; for acPTZ screen slope: slope belonging to the scPTZ ED50
[3] = tested on: rats; assay: MES screen after oral administration to rats; settings: for MES screen slope: slope belonging to the MES ED50
[4] = tested on: mice; settings: intraperitoneal injection in mice; slope belonging to the TD50
[5] = tested on: rats; assay: neurotoxicity screen after oral administration to rats; settings: slope belonging to the TD50
[6] = tested on: rats; settings: oral administration to rats; data taken from reference 1; cited from earlier work
[7] = tested on: rats; assay: MES screen after intraperitoneal injection into rats; type: in vivo

Row | SMILES | MES screen slope [1] | MES screen slope [3] | neurotoxicity screen slope [4] | PI (protection index TD50/ED50) ([3]; TD50 / MES ED50) | PI MES (protection index TD50/ED50) [1] | further results
1 | CCCC(CCC)C(=O)O [Valproic acid, reference compound] | 7.31 | 8.13 | 12.3 |  |  | PI acPTZ (protection index TD50/ED50) [2]: 2.31; acPTZ screen slope [2]: 8.51; neurotoxicity screen slope [5]: 6.57
2 | CC(=NNC(N)=O)c1ccc(Oc2ccc(Br)cc2)cc1 [Compound 13d] |  | 3.600 |  | >328.28 |  | 
3 | NC(=O)N1c2ccccc2C=Cc2ccccc21 [Carbamazepine, reference compound] | 20.8 | 3.84 | 7.98 |  |  | neurotoxicity screen slope [5]: 11.4
4 | CCC(=NNC(N)=O)c1ccc(Oc2ccc(F)cc2)cc1 [Compound 13f] | 11.64 | 3.67 | 6.78 |  | 6.45 | PI acPTZ (protection index TD50/ED50) [2]: 2.75; acPTZ screen slope [2]: 3.34
5 | Cc1cccc(Oc2ccc(C=NNC(N)=O)cc2)c1 [Compound 5o] |  | 7.114 |  | >162.47 |  | 
6 | CCCCc1ccc(Oc2ccc(C=NNC(N)=O)cc2)cc1 [Compound 5r] | 6.945 | 3.575 | 6.467 | >100.16 | 9.825 | PI acPTZ (protection index TD50/ED50) [2]: 1.510; acPTZ screen slope [2]: 11.442
7 | NC(=O)NN=Cc1ccc(Sc2ccc(Cl)cc2)cc1 [Compound 16b] | 23.21 |  | 5.90 |  | 3.28 | 
8 | CCC(=NNC(N)=O)c1ccc(Oc2ccc(Cl)cc2)cc1 [Compound 13g] | 20.278 | 2.035 |  | >172.81 | <9.017 | 
9 | CCC(=NNC(N)=O)c1ccc(Oc2ccc(Br)cc2)cc1 [Compound 13h] |  | 4.206 |  |  |  | 
10 | CC(=NNC(N)=O)c1ccccc1Oc1ccc(F)cc1 [Compound 14b] |  | 2.287 |  |  |  | 
11 | NC(=O)NN=Cc1ccc(Sc2ccc(Br)cc2)cc1 [Compound 16c] | 5.92 |  | 6.92 |  | 5.03 | 
12 | NC(=O)NN=Cc1ccc(OS(=O)(=O)c2ccccc2)cc1 [Compound 15f] | 9.52 |  | 17.38 |  | 4.47 | 
13 | Cc1ccccc1Oc1ccc(C=NNC(N)=O)cc1 [Compound 5n] |  | 3.65 |  | >88 |  | 
14 | CC(C)(C)CC(C)(C)c1ccc(Oc2ccc(C=NNC(N)=O)cc2)cc1 [Compound 5t] | 10.881 |  | 3.924 |  | 11.048 | PI acPTZ (protection index TD50/ED50) [2]: >0.623
15 | CC(=NNC(N)=O)c1ccc(Oc2ccc(F)cc2)cc1 [Compound 13b] | 22.69 | 5.74 | 45.21 | 32.3 | 5.22 | neurotoxicity screen slope [5]: 4.82
16 | CC(=NNC(N)=O)c1ccc(Oc2ccccc2)cc1 [Compound 13a] | 6.21 | 3.844 | 10.51 |  | 8.09 | PI acPTZ (protection index TD50/ED50) [2]: 1.70; acPTZ screen slope [2]: 1.54
17 | NC(=O)NN=Cc1ccc(Oc2ccc(F)cc2)cc1 [Compound 4b, 4-(4′-fluorophenoxy)benzaldehyde semicarbazone] | 8.28 | 3.17 | 3.69 | >315 | 8.40 | MES screen slope [6]: 3.17; PI (protection index TD50/ED50) [6]: >315; slope (SE) in the MES screen ([7]; 4 h): 2.65(0.76); PI ([7]; TD50/ED50): 33.8; PI (protection index TD50/ED50) ([3]; TD50 / MES ED50, listed as 4-(4′-fluorophenoxy) benzaldehyde semicarbazone): greater than 315
18 | NC(=O)NN=Cc1ccc(Sc2ccc(F)cc2)cc1 [Compound 16a] | 6.372 | 3.92 | 24.001 | 36.8 | 7.112 | PI acPTZ (protection index TD50/ED50) [2]: <0.733; neurotoxicity screen slope [5]: 2.49
19 | CC(C)(C)c1ccc(Oc2ccc(C=NNC(N)=O)cc2)cc1 [Compound 5s] | 13.063 | 4.437 | 6.313 | >297.24 | 11.934 | PI acPTZ (protection index TD50/ED50) [2]: >0.076
20 | CCc1ccc(Oc2ccc(C=NNC(N)=O)cc2)cc1 [Compound 5p] |  | 1.98 |  |  |  | 
21 | O=C1NC(=O)C(c2ccccc2)(c2ccccc2)N1 [Phenytoin, reference compound] | 11.24 and 12.4 | 15.1 | 14.39 and 10.2 | >21.6 | 6.52 and 6.60 | 
22 | CCC(=NNC(N)=O)c1ccc(Oc2ccccc2)cc1 [Compound 13e] |  | 3.14 |  |  |  | 
23 | NC(=O)NN=Cc1ccc(Sc2ccccc2)cc1 [Compound 15a] | 4.50 | 6.02 | 4.59 | >115.6 | 11.59 | 
24 | CCCCOc1ccc(Oc2ccc(C=NNC(N)=O)cc2)cc1 [Compound 5u] |  | 1.327 |  |  |  | 
25 | Cc1ccc(Oc2ccc(C=NNC(N)=O)cc2)cc1 [Compound 4f] | 5.59 | 4.121 | 4.29 | >145.57 | 13.91 | PI acPTZ (protection index TD50/ED50) [2]: 2.30; acPTZ screen slope [2]: 1.87
26 | CCCc1ccc(Oc2ccc(C=NNC(N)=O)cc2)cc1 [Compound 5q] |  | 3.213 |  | >190.02 |  | 
27 | CC(=NNC(N)=O)c1ccc(Oc2ccc(Cl)cc2)cc1 [Compound 13c] |  | 5.774 |  | <170.73 |  | 
